These results are taken from paper PMC4451243.

Sequences of proteins named here, by UniProt entry; tags and fusion partners are left off. A change or cut given only in a name is not applied to a line headed by its entry.
UniProt Q03468: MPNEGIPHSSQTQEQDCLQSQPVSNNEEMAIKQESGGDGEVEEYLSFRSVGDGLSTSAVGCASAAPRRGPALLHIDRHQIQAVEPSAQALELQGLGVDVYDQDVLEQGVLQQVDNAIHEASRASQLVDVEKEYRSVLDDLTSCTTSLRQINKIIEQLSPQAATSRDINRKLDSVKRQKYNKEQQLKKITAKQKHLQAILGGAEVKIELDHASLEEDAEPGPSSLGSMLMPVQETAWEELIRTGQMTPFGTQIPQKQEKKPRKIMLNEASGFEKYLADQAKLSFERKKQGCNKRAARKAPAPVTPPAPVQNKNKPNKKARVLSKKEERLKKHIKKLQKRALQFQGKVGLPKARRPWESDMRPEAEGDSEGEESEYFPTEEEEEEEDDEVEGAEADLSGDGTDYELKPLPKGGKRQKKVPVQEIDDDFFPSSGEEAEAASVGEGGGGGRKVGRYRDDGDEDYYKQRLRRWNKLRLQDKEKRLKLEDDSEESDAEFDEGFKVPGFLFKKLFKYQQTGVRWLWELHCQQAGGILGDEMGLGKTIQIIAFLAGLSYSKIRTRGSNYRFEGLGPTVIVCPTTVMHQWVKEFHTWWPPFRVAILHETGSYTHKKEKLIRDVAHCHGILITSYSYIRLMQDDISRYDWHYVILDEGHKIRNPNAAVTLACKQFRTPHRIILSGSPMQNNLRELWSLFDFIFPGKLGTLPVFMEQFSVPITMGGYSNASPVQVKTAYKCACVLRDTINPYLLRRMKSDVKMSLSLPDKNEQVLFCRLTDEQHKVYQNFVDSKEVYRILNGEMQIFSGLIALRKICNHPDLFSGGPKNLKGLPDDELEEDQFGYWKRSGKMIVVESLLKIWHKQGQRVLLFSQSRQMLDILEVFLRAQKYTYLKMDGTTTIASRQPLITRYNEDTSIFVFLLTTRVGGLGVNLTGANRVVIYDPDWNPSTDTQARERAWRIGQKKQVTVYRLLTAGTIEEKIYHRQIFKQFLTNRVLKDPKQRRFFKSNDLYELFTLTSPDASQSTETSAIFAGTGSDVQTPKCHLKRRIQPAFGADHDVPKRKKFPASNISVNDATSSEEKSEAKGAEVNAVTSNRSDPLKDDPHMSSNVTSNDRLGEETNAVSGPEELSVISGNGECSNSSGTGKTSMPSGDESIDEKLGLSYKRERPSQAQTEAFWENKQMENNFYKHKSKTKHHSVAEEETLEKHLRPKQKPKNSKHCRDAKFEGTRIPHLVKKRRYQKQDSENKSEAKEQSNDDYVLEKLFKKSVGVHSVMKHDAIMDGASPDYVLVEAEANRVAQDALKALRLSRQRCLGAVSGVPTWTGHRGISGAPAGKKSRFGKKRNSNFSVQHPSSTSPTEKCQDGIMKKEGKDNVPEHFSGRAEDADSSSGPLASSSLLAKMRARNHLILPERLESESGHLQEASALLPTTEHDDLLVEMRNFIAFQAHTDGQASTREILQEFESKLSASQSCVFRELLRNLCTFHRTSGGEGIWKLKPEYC
UniProt Q14999: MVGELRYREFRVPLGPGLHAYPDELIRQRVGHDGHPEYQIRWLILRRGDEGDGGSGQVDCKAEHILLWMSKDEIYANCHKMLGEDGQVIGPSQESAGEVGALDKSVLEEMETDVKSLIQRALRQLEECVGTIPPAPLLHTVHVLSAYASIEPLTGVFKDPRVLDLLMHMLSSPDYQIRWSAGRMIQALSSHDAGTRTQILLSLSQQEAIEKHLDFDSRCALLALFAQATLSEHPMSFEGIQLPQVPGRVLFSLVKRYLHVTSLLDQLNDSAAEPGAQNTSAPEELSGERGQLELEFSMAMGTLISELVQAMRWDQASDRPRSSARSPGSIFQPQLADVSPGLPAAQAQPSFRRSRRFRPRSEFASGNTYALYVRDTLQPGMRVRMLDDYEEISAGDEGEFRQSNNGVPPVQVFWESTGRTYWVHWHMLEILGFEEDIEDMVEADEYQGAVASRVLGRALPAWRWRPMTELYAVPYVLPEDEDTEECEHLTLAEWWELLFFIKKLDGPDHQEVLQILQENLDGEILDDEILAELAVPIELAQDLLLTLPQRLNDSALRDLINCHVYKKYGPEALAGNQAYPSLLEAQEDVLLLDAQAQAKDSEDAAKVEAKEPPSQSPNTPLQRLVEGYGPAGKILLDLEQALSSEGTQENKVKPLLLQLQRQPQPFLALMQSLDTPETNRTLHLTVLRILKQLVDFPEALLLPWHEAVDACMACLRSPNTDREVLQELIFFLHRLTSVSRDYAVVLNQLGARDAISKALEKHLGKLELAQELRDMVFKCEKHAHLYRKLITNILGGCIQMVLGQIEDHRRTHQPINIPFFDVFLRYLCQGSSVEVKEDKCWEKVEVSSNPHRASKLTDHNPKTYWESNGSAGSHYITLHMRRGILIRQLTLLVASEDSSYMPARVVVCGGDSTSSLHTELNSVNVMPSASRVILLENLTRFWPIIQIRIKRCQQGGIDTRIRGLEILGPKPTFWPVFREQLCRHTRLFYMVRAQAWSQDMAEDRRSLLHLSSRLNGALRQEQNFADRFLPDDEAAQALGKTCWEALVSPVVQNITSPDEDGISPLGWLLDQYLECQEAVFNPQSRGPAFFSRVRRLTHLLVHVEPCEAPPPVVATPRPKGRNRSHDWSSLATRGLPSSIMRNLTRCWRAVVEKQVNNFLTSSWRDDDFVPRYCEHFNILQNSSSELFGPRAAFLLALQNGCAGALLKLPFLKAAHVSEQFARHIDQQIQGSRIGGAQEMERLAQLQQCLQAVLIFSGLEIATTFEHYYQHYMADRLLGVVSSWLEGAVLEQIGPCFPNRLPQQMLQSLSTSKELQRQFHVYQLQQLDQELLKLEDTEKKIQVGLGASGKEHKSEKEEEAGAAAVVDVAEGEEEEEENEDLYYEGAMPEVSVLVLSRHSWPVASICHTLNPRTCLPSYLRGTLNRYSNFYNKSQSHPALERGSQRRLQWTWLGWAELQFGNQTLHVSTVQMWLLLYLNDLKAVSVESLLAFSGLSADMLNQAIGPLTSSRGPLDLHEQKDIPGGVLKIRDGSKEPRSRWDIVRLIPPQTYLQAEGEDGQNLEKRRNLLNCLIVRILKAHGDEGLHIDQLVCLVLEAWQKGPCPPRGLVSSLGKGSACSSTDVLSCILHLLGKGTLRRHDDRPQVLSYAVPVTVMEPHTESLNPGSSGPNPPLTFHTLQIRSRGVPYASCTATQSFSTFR
UniProt O00571: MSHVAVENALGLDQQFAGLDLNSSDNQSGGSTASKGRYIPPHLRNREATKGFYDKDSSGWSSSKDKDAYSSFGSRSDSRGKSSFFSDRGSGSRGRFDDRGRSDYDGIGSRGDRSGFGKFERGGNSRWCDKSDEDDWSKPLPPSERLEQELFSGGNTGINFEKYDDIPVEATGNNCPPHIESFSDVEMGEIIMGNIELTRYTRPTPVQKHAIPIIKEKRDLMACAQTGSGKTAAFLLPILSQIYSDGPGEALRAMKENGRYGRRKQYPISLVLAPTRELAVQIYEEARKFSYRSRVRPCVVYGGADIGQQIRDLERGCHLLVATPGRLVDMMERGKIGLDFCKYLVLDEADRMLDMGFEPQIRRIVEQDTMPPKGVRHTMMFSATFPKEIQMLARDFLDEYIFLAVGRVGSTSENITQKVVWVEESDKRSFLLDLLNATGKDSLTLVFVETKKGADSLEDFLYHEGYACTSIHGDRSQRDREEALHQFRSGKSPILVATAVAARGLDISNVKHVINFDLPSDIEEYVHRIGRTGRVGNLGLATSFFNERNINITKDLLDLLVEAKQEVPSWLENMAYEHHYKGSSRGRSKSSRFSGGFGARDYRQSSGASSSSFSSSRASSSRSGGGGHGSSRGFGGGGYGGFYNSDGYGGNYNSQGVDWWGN
UniProt Q9BUQ8: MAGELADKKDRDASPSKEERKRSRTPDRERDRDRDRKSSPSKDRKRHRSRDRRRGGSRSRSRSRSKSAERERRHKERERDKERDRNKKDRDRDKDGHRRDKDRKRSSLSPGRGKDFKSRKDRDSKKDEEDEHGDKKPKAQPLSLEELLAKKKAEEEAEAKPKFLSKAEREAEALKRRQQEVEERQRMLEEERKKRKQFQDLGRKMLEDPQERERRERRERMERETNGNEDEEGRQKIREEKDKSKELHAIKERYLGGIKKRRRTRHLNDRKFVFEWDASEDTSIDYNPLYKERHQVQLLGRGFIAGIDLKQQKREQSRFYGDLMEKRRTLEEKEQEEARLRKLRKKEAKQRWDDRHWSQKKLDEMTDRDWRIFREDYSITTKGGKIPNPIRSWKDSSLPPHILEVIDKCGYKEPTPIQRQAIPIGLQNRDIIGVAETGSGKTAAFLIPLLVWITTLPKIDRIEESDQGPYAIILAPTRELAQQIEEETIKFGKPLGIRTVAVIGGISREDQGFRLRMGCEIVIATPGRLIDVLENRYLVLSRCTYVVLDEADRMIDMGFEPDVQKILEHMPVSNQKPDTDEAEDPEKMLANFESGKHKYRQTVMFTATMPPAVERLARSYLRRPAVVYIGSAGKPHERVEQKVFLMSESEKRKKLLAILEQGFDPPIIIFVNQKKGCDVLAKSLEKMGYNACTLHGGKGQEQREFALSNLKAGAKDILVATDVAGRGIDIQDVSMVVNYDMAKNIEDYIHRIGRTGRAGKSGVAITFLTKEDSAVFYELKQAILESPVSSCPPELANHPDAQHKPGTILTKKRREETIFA
UniProt P13010: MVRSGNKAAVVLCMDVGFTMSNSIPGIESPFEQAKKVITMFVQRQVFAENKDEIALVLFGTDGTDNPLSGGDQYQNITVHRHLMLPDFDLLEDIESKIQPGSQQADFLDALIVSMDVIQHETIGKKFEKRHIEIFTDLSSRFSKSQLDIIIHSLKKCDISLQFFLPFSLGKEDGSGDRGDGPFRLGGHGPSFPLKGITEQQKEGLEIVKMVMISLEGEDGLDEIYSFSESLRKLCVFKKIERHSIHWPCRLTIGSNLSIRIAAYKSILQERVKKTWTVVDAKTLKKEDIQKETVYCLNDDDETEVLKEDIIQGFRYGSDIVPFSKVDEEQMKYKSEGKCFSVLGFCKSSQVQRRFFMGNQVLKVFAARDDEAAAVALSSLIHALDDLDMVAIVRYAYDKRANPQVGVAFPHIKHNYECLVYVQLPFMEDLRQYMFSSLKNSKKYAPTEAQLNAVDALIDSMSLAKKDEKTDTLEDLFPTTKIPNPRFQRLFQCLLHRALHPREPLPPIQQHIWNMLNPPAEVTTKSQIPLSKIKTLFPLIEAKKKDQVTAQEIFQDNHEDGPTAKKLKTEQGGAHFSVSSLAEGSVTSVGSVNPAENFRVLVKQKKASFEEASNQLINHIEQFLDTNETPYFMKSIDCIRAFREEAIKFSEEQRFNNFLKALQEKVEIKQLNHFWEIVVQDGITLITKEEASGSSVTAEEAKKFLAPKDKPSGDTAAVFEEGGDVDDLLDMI
UniProt Q93009: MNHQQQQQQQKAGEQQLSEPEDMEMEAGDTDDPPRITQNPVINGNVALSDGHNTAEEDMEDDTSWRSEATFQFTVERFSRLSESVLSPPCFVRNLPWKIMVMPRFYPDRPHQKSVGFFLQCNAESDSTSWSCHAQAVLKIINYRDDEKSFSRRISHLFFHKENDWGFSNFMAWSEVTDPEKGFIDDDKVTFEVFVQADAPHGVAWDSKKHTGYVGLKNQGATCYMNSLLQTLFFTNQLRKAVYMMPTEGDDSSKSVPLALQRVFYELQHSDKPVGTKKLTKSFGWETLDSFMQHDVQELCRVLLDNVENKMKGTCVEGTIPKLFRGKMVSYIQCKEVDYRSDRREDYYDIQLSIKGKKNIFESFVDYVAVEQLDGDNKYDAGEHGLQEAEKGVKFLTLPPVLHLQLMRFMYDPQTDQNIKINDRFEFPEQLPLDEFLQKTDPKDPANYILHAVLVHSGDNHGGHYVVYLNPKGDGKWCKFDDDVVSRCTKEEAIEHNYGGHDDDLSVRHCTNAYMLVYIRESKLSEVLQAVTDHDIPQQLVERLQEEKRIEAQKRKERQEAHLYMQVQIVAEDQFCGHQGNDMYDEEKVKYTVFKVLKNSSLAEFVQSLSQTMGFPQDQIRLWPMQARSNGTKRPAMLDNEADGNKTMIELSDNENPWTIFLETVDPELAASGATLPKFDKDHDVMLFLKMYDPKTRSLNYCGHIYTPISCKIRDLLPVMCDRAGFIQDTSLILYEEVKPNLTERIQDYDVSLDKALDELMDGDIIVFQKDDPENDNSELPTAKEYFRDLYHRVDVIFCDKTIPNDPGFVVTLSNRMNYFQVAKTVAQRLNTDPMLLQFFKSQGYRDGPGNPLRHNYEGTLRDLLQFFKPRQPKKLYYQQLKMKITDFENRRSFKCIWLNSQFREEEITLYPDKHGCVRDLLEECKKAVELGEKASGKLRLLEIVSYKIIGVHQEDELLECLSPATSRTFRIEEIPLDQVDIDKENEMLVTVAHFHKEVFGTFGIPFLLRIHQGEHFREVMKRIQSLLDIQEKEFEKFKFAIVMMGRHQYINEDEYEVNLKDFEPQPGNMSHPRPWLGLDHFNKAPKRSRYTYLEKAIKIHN

Read-outs that look alike come from different tables or passages of the source. Results are given in words; binding and its absence hold for the method and conditions named. Binding seen in cells or lysates may run through a third protein. Here binding means that the protein was enriched with, or labelled near, the bait; the list need not be complete.

In assay [1] the target is CSB-TAP fusion protein (human) (UniProt Q03468). Kind of assay: affinity purification with mass spectrometry; tandem affinity purification of CSB-TAP from extracts of stably transfected CSIAN cells (IPP150 lysis buffer: 50 mM Tris pH 8.0, 150 mM NaCl, 10% glycerol, 0.1% NP-40); IgG sepharose, TEV elution, calmodulin beads, 4°C; bound proteins on a 4-12% Bis-Tris gel, LC-MS/MS; no exogenous DNA damage.

The target is the same in assay [2]. The description is as above. This is another data set of the same source.

In the case of SMARCA5 (from UniProt O60264 1-1052), the binding result in assay [1] is “binds”. The same measure, in the same setting: the entry for SMARCA1 (from UniProt P28370 1-1042) is “binds”; for CUL7 (from UniProt Q14999 1-1698) it is “binds”. For PSMD3 (from UniProt O43242 1-534), the binding entry in assay [1] is recorded as “binds”. DDX5 (from UniProt P17844 1-614): the binding entry in assay [1] is on record as “binds”. Still for that read-out and setting: the entry for “Topoisomerase I (from UniProt P11387 1-765)” is “binds”; for DDX3X (from UniProt O00571 1-662) it is “binds”. On the same count and under the same terms, as for DDX23 (from UniProt Q9BUQ8 1-820), the entry is “binds”.

Take XRCC5 (from UniProt P13010 1-732): the binding result in assay [1] is on record as “binds”. Take USP7 (from UniProt Q93009 1-1102): the binding entry in assay [1] is “binds”.

Consider RBBP4 (from UniProt Q09028 1-425), for which the binding entry in assay [1] is “binds”.

Turning to “histone deacetylase 1 (from UniProt Q13547 1-482)”, the binding entry in assay [1] is given as “binds”.

Regarding DDX17 (from UniProt Q92841 1-729), the binding entry in assay [1] was “binds”. On to SMARCA2 (from UniProt P51531 1-1590), for which the binding entry in assay [1] was “binds”.

With SMARCA4 (from UniProt P51532 1-1647), in assay [1], the binding entry is “binds”.

B1: PRPF3 (protein, UniProt O43395 1-683)
chain: MALSKRELDELKPWIEKTVKRVLGFSEPTVVTAALNCVGKGMDKKKAADHLKPFLDDSTLRFVDKLFEAVEEGRSSRHSKSSSDRSRKRELKEVFGDDSEISKESSGVKKRRIPRFEEVEEEPEVIPGPPSESPGMLTKLQIKQMMEAATRQIEERKKQLSFISPPTPQPKTPSSSQPERLPIGNTIQPSQAATFMNDAIEKARKAAELQARIQAQLALKPGLIGNANMVGLANLHAMGIAPPKVELKDQTKPTPLILDEQGRTVDATGKEIELTHRMPTLKANIRAVKREQFKQQLKEKPSEDMESNTFFDPRVSIAPSQRQRRTFKFHDKGKFEKIAQRLRTKAQLEKLQAEISQAARKTGIHTSTRLALIAPKKELKEGDIPEIEWWDSYIIPNGFDLTEENPKREDYFGITNLVEHPAQLNPPVDNDTPVTLGVYLTKKEQKKLRRQTRREAQKELQEKVRLGLMPPPEPKVRISNLMRVLGTEAVQDPTKVEAHVRAQMAKRQKAHEEANAARKLTAEQRKVKKIKKLKEDISQGVHISVYRVRNLSNPAKKFKIEANAGQLYLTGVVVLHKDVNVVVVEGGPKAQKKFKRLMLHRIKWDEQTSNTKGDDDEESDEEAVKKTNKCVLVWEGTAKDRSFGEMKFKQCPTENMAREHFKKHGAEHYWDLALSESVLESTD
As to B1, the binding result in assay [2] was “binds”.

B2: CSTF1 (protein, UniProt Q05048 1-431)
chain: MYRTKVGLKDRQQLYKLIISQLLYDGYISIANGLINEIKPQSVCAPSEQLLHLIKLGMENDDTAVQYAIGRSDTVAPGTGIDLEFDADVQTMSPEASEYETCYVTSHKGPCRVATYSRDGQLIATGSADASIKILDTERMLAKSAMPIEVMMNETAQQNMENHPVIRTLYDHVDEVTCLAFHPTEQILASGSRDYTLKLFDYSKPSAKRAFKYIQEAEMLRSISFHPSGDFILVGTQHPTLRLYDINTFQCFVSCNPQDQHTDAICSVNYNSSANMYVTGSKDGCIKLWDGVSNRCITTFEKAHDGAEVCSAIFSKNSKYILSSGKDSVAKLWEISTGRTLVRYTGAGLSGRQVHRTQAVFNHTEDYVLLPDERTISLCCWDSRTAERRNLLSLGHNNIVRCIVHSPTNPGFMTCSDDFRARFWYRRSTTD
Consider B2, for which, in assay [2], the binding entry is “binds”.
